Results as given in PubChem BioAssay AID336 (DTP/NCI, 2004).
The list does not hold the whole screen: it gathers tests that were run many times, whatever their T/C, doses with no T/C, and many T/C values between a quarter and a half above the control. Further doses and runs are listed elsewhere. T/C is the treated group as % of the vehicle group. Some entries give survivors of the animals treated and no T/C: the source holds a T/C of zero for them, seemingly a mark for toxic or unscored doses. Some survivor counts are full or nearly so, which does not show that the dose was tolerated: the source hardly ever lists a survival T/C far under the control, and the zero likely stands for such cases as well. Counts of survivors are from the toxicity check (mostly the fifth day) where no day follows; animals may have died later. Schedule codes are those of the source, read here as Q, the interval in days (D) or hours (H), X, the number of doses. Some entries were tested several times; the results are listed from low to high. Where survival is the endpoint, this PubChem deposit counts one and a half times the control or more as active, and values a quarter to a half above the control carry no call in these data; other NCI protocols may use other cut-offs. Additions like (4×) give the number of equal values in this list. *1 amine or outer side, *2 acyl side, *3 side chain or, on linkers, in order; H or OH if unused. Where a SMILES comes first, the peptide text is derived from it. Bridges are numbered along the chain shown (N, C = ends). Roman numbers before positions name the chains, in order. [ ]: non-standard residue; d: D form. Actinocin(9to1) = Cc1c2oc3c(C)ccc(C(=O)[*:1])c3nc-2c(C(=O)[*:2])c(N)c1=O; aThr = C[C@H](O)[C@H](N)C(=O)O; NMeV = CN[C@H](C(=O)O)C(C)C; Sar = CNCC(=O)O

Test system: BDF1 mice, P388/VCR leukemia ip, median survival T/C
Assay: NCI In Vivo Anticancer Drug Screen. Data for tumor model P388 Leukemia resistant to Vincristine; NSC 67574 (intraperitoneal) in B6D2F1 (BDF1) mice
Details: T/C endpoint: median survival time, higher T/C = longer survival
Description: The antitumor activity of compounds was measured in mice bearing transplantable tumors. Survival or tumor size were measured and the results are expressed as the measurement made in the treated group (T) divided by the measurement made in the vehicle treated control group (C). The tumor model used in this assay is P388 Leukemia resistant to Vincristine; NSC 67574 (intraperitoneal) in B6D2F1 (BDF1) mice

[1] = dose: 80.0 mg/kg/injection, schedule: Q01DX010 (ip), vehicle: saline
[2] = dose: 120.0 mg/kg/injection, schedule: Q01DX010 (ip), vehicle: saline
[3] = dose: 180.0 mg/kg/injection, schedule: Q01DX010 (ip), vehicle: saline
[4] = dose: 50.0 micrograms/kg/injection, schedule: Q01DX010 (ip), vehicle: other
[5] = dose: 100.0 micrograms/kg/injection, schedule: Q01DX010 (ip), vehicle: other
[6] = dose: 2.0 mg/kg/injection, schedule: Q01DX010 (ip), vehicle: saline
[7] = dose: 4.0 mg/kg/injection, schedule: Q01DX010 (ip), vehicle: saline
[8] = dose: 100.0 mg/kg/injection, schedule: Q01DX010 (ip), vehicle: saline
[9] = dose: 125.0 mg/kg/injection, schedule: Q01DX010 (ip), vehicle: saline
[10] = dose: 5.0 mg/kg/injection, schedule: Q01DX010 (ip), vehicle: saline
[11] = dose: 10.0 mg/kg/injection, schedule: Q01DX010 (ip), vehicle: saline
[12] = dose: 40.0 mg/kg/injection, schedule: Q01DX010 (ip), vehicle: saline
[13] = dose: 0.25 mg/kg/injection, schedule: Q01DX010 (ip), vehicle: saline
[14] = dose: 0.5 mg/kg/injection, schedule: Q01DX010 (ip), vehicle: saline
[15] = dose: 1.0 mg/kg/injection, schedule: Q01DX010 (ip), vehicle: saline
[16] = dose: 36.0 mg/kg/injection, schedule: Q01DX010 (ip), vehicle: saline
[17] = dose: 3.0 mg/kg/injection, schedule: Q01DX010 (ip), vehicle: saline

O=C(Nc1cccc(C(=O)Nc2ccc(C3=NCCN3)cc2)c1)c1ccc(C2=NCCN2)cc1
survivor count [1]: 3 of 6
survivor count [2]: 0 of 6
survivor count [3]: 0 of 6

Cc1c2oc3c(C)ccc(C(=O)N[C@@H]4C(=O)N[C@H](C(C)C)C(=O)N5CCC[C@H]5C(=O)N(C)CC(=O)N(C)[C@@H](C(C)C)C(=O)O[C@H]4C)c3nc-2c(C(=O)N[C@@H]2C(=O)N[C@H](C(C)C)C(=O)N3CCC[C@H]3C(=O)N(C)CC(=O)N(C)[C@@H](C(C)C)C(=O)O[C@H]2C)c(N)c1=O (I: [aThr][dV]P[Sar][NMeV] / II: [aThr][dV]P[Sar][NMeV]; ester I:1-I:C, II:1-II:C; linker I:N-II:N via Actinocin(9to1))
T/C [4]: 136 % of control (2×)
T/C [5]: 140 and 144 % of control

O=C(Nc1ccc(NC2=NCCN2)cc1)c1ccc(C(=O)Nc2ccc(NC3=NCCN3)cc2)cc1
T/C [6]: 146 % of control
T/C [7]: 142 % of control

C=CC(CN1CC1)OC(C)=O (stereo unspecified)
T/C [7]: 136 % of control
survivor count (dose: 16.0 mg/kg/injection, schedule: Q01DX010 (ip), vehicle: saline): 4 of 6

CCN(CC)CCNc1ccc(C)c2sc3ccccc3c(=O)c12
T/C (dose: 25.0 mg/kg/injection, schedule: Q01DX010 (ip), vehicle: saline): 127 and 136 % of control
survivor count [8]: 6 of 6
survivor count [9]: 6 of 6
survivor count (dose: 200.0 mg/kg/injection, schedule: Q01DX010 (ip), vehicle: saline): 6 of 6

O=C(Nc1ccc(C2=NCCN2)cc1)c1ccc(C(=O)Nc2ccc(C3=NCCN3)cc2)c(F)c1
T/C [3]: 138 % of control

O=c1[nH]cc(F)c(=O)[nH]1
T/C [10]: 135 and 140 % of control
T/C [11]: 140 % of control
survivor count [12]: 6 of 6

O=C(Nc1ccc(NC(=O)Nc2cccc(C3=NCCN3)c2)cc1)Nc1cccc(C2=NCCN2)c1
T/C (dose: 60.0 mg/kg/injection, schedule: Q01DX010 (ip), vehicle: saline): 141 and 145 % of control
T/C (dose: 240.0 mg/kg/injection, schedule: Q01DX010 (ip), vehicle: saline): 133 and 137 % of control

CC[C@]1(O)C[C@H]2CN(CCc3c([nH]c4ccccc34)[C@@](C(=O)OC)(c3cc4c(cc3OC)N(C=O)[C@H]3[C@@](O)(C(=O)OC)[C@H](OC(C)=O)[C@]5(CC)C=CCN6CC[C@]43[C@@H]65)C2)C1
survivor count (dose: 0.03 mg/kg/injection, schedule: Q01DX010 (ip), vehicle: saline): 6 of 6
survivor count (dose: 0.06 mg/kg/injection, schedule: Q01DX010 (ip), vehicle: saline): 6 of 6
survivor count (dose: 0.12 mg/kg/injection, schedule: Q01DX010 (ip), vehicle: saline): 6 of 6
T/C [13]: 126 % of control
survivor count [13]: 6 of 6
survivor count [14]: 6 of 6
survivor count (dose: 1670.0 micrograms/kg/injection, schedule: Q04DX003 (ip), vehicle: saline): 7 of 8

Cn1c(N)nc2nc[nH]c2c1=S
T/C [1]: 134 % of control

O=c1[nH]c(=O)n(C2CC(O)C(CO)O2)cc1F (stereo unspecified)
T/C [11]: 125 % of control
survivor count [1]: 6 of 6

CS(=O)(=O)OCCN(CCOS(C)(=O)=O)c1ccc(N=O)cc1
T/C [14]: 135 % of control
survivor count [15]: 6 of 6
survivor count [6]: 6 of 6
survivor count [7]: 0 of 6 and 6 of 6

Nc1nc(=S)c2[nH]cnc2[nH]1
T/C (dose: 1.25 mg/kg/injection, schedule: Q01DX010 (ip), vehicle: other): 142 % of control
survivor count (dose: 10.0 mg/kg/injection, schedule: Q01DX010 (ip), vehicle: other): 0 of 6 and 6 of 6

CN=C(NC)c1ccc(NC(=O)Nc2ccc(NC(=O)Nc3ccc(C(=NC)NC)cc3)cc2)cc1
survivor count (dose: 45.0 mg/kg/injection, schedule: Q01DX010 (ip), vehicle: saline): 4 of 6

O=C(Nc1ccc(C2=NCCN2)cc1)c1ccc(C(=O)Nc2ccc(C3=NCCN3)cc2)cc1
T/C (dose: 75.0 mg/kg/injection, schedule: Q01DX010 (ip), vehicle: saline): 130 % of control

Cc1cc(N(CCCl)CCCl)ccc1N=Nc1ccccc1C(=O)O
survivor count [12]: 6 of 6

COC(=O)[C@@]12OC[C@]34[C@H]([C@@H](O)[C@@H]1O)[C@@]1(C)CC(=O)C(O)=C(C)[C@@H]1C[C@H]3OC(=O)[C@H](OC(=O)/C=C(\C)C(C)C)[C@@H]24
survivor count (dose: 1080.0 micrograms/kg/injection, schedule: Q01DX004 (ip), vehicle: saline + alcohol): 5 of 8
survivor count (dose: 1200.0 micrograms/kg/injection, schedule: Q01DX009 (ip), vehicle: saline + alcohol): 8 of 8
survivor count (dose: 1800.0 micrograms/kg/injection, schedule: Q01DX004 (ip), vehicle: saline + alcohol): 0 of 8
survivor count (dose: 2000.0 micrograms/kg/injection, schedule: Q01DX009 (ip), vehicle: saline + alcohol): 2 of 8

Nc1nc(N)c2nc(CNc3ccc(C(=O)NC(CCC(=O)O)C(=O)O)cc3)cnc2n1 (stereo unspecified)
T/C (dose: 25.0 micrograms/kg/injection, schedule: Q01DX010 (ip), vehicle: other): 129 % of control
T/C [4]: 133 % of control
T/C [5]: 133 and 141 % of control

COC1C(O)C(C)OC(OC2C(Oc3cccc4c(O)c5c(=O)oc6ccc(C)c7c(=O)oc(c34)c5c67)OC(C)C(O)C2O)C1O (stereo unspecified)
T/C (dose: 120.0 mg/kg/injection, schedule: Q04DX003 (ip), vehicle: acid diluted with saline): 130 % of control

CN(C)c1ccc(Nc2c3ccccc3nc3ccccc23)cc1
T/C [16]: 125 % of control
survivor count [16]: 6 of 6
survivor count (dose: 54.0 mg/kg/injection, schedule: Q01DX010 (ip), vehicle: saline): 6 of 6
survivor count [1]: 6 of 6
survivor count [2]: 6 of 6

CN(C)/N=N/c1nc[nH]c1C(N)=O
T/C (dose: 50.0 mg/kg/injection, schedule: Q01DX010 (ip), vehicle: saline): 125 % of control
T/C [8]: 130 and 133 % of control

CC[C@H]1CN2CCc3cc(OC)c(OC)cc3[C@@H]2C[C@@H]1C[C@@H]1c2cc(OC)c(OC)cc2CCN1CCN(CCCl)CCCl
T/C (dose: 18.0 mg/kg/injection, schedule: Q04DX003 (ip), vehicle: saline with Tween-80): 137 % of control
survivor count (dose: 30.0 mg/kg/injection, schedule: Q04DX003 (ip), vehicle: saline with Tween-80): 4 of 8

COc1cccc2c1C(=O)c1c(O)c3c(c(O)c1C2=O)C[C@@](O)(C(=O)CO)C[C@@H]3OC1CC(N)C(O)C(C)O1 (stereo partly specified)
T/C (dose: 1.44 mg/kg/injection, schedule: Q04DX003 (ip), vehicle: water): 143 % of control
T/C (dose: 6.67 mg/kg/injection, schedule: Q04DX003 (ip), vehicle: water): 145 % of control

[I][Hg][CH2]C1COC([CH2][Hg][I])CO1 (stereo unspecified)
T/C (dose: 6.25 mg/kg/injection, schedule: Q01DX010 (ip), vehicle: saline): 126 % of control

O=CCC(O)C(O)C(O)CO (stereo unspecified)
survivor count (dose: 62.5 mg/kg/injection, schedule: Q01DX010 (ip), vehicle: saline): 6 of 6
survivor count [9]: 6 of 6

CN(C)c1ccc(/C=C/c2ccnc3ccccc23)cc1
survivor count (dose: 20.0 mg/kg/injection, schedule: Q01DX010 (ip), vehicle: saline): 6 of 6

C[n+]1ccc(NC(=O)c2ccc(NC(=O)c3cccc(C(=O)Nc4ccc(C(=O)Nc5cc[n+](C)cc5)cc4)c3)cc2)cc1
T/C [10]: 125 % of control
T/C [11]: 141 % of control
survivor count [12]: 0 of 7

S=P(N1CC1)(N1CC1)N1CC1
T/C [17]: 145 % of control

Nc1ncnc2[nH]ncc12
survivor count (dose: 1.5 mg/kg/injection, schedule: Q01DX010 (ip), vehicle: saline): 6 of 6
survivor count [17]: 6 of 6
survivor count (dose: 12.0 mg/kg/injection, schedule: Q01DX010 (ip), vehicle: saline): 6 of 6

Nc1nc(=S)c2ncn(C3OC(CO)C(O)C3O)c2[nH]1 (stereo unspecified)
survivor count [15]: 6 of 6
survivor count [6]: 6 of 6
survivor count [7]: 6 of 6
